In US8895585B2, “Nicotinamide derivative or salt thereof” (FUJIFILM Corporation, priority 2010, dated 2014):
The match of structure and compound is tentative.

Target: glutathione S-transferase (GST)-fused full-length human Syk protein (Homo sapiens, UniProt P43405)
Test: Syk enzyme assay
Conditions: read-out: IC50 of Syk-inhibitory activity, Test Example 1
Procedure: A glutathione S-transferase (GST)-fused full-length human Syk protein (Carna Biosciences), which had been generated using a Baculovirus expression system, was used in the Syk enzyme assay.
15 μl of a reaction solution (1.2 ng Syk, 20 mM HEPES, 10 mM MgCl2, 50 mM NaCl, 2 mM DTT, 0.05% BSA, pH 7.0) containing a Syk protein and a predetermined concentration of a test compound was shaken for 2 minutes, and it was then left at rest at room temperature for 13 minutes. Thereafter, 5 μl of Biotin-EDPDYEWPSA-NH2 (final concentration: 0.4 μM) serving as a substrate peptide and 5 μl of ATP (final concentration: 27 μM) were added to the reaction solution, and the obtained mixture was then shaken for 2 minutes. The reaction solution was further left at rest at room temperature for 40 minutes, so as to carry out an enzyme reaction.
Thereafter, 50 μl of a reaction termination solution [5 μg/ml Streptavidin, 0.18 μg/ml PT66-K, 30 mM HEPES (pH 7.0), 150 mM KF, 75 mM EDTA, 0.15% BSA, 0.075% Tween20], which contained Streptavidin-Xlent (Cisbio) and Mab PT66-K (Cisbio), was added to the reaction solution to terminate the enzyme reaction. […] Thereafter, using EnVision (PerkinElmer), the time-resolved fluorescence was measured at 615 nm and 665 nm, so that the phosphorylation of the substrate peptide was measured. […]

NCCNc1nc(Nc2cccc(C(=O)NC3CCCCC3)c2)c(C(N)=O)cc1F [Example 31-3, 6-((2-aminoethyl)amino)-2-((3-(cyclohexylaminocarbonyl)phenyl)amino)-5-fluoronicotinamide]
IC50: 0.1 to 1 µM

NCCNc1nc(Nc2cccc(C(=O)Nc3ccccc3)c2)c(C(N)=O)cc1F [Example 30, 6-(2-aminoethylamino)-2-(3-(anilinocarbonyl)phenylamino)-5-fluoronicotinamide]
IC50: 0.01 to 0.05 µM
